The target in this test is human glucagon-like peptide-1 receptor as used in the β-arrestin recruitment (PathHunter) assays (human) (UniProt P43220). Briefly: split reporter.

The chains behind the UniProt entries cited, without tags or fusion partners. Residues count along the entry.
UniProt P43220, residues 24-463: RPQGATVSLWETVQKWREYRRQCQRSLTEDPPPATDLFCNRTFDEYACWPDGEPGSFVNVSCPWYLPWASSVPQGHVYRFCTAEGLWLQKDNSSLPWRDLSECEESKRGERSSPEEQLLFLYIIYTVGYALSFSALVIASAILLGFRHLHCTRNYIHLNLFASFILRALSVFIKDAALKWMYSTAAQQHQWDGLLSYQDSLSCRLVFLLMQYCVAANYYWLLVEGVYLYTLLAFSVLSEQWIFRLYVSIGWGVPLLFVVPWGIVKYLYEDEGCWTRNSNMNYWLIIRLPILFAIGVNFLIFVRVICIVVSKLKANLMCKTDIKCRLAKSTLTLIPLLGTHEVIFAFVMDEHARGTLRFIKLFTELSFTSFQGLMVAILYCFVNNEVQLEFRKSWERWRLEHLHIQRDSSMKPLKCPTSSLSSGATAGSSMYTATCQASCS
UniProt P49407: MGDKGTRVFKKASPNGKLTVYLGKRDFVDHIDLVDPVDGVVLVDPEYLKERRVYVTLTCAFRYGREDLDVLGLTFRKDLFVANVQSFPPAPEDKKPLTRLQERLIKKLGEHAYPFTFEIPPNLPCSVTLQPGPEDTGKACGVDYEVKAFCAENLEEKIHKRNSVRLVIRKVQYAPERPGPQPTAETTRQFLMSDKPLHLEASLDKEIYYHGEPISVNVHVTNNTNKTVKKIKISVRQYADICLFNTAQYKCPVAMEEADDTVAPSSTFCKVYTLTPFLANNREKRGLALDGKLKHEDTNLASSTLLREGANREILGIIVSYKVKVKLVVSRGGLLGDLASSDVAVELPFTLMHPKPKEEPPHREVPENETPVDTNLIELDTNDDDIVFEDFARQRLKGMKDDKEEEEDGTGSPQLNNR
UniProt P32121: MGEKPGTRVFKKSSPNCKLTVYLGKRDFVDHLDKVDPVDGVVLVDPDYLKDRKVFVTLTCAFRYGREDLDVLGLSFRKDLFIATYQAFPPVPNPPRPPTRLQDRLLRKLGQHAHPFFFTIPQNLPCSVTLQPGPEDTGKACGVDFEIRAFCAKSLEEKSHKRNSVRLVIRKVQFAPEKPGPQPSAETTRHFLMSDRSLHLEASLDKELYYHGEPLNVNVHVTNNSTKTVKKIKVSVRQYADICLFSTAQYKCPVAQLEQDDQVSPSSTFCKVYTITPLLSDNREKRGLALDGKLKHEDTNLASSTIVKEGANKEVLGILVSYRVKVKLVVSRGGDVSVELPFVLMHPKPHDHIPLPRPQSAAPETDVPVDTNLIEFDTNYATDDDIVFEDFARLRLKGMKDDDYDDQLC

No constants are given. Whether binding was seen depends on the method and setting. In cells and extracts the contact can be indirect. Some binding calls cover weakened binding; strength is not graded here.

On to “β-arrestin-1 (from UniProt P49407 1-418)”, for which the binding result is “binds”.

Turning to “β-arrestin-2 (from UniProt P32121 1-409)”, the binding entry is reported as “binds”.

The record behind these values is publication doi:10.1101/2020.09.29.319483.
